Results on one substance are retold here after article PMC9166763.

Protein sequences, listed by entry. Tags and fused reporters are not part of them. Residues count along the entry.
UniProt P11021, residues 19-654: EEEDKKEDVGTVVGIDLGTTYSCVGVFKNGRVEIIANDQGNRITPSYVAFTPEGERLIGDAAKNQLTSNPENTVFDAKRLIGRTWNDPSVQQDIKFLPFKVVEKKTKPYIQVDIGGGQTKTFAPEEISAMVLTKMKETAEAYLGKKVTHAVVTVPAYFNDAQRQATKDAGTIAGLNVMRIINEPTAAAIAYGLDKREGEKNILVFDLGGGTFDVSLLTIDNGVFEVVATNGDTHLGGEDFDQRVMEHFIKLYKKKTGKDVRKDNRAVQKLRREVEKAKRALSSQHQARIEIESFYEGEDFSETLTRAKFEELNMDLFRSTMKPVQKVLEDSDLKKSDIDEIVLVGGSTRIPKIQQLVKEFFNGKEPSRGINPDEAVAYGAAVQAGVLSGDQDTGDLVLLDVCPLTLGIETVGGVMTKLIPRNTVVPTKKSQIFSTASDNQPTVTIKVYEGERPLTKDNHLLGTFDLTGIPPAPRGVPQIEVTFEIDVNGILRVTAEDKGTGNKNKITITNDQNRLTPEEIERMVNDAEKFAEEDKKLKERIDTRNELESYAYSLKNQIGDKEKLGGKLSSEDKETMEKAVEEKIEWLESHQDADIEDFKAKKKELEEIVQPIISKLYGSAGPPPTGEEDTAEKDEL

These are yes or no findings as the source states them, for the method shown. In cells and extracts the contact can be indirect. Here binding means that the protein was enriched with, or labelled near, the bait; the list need not be complete.

The assay addresses T1, Decoy receptor 2 (DcR2), human, endogenous in renal biopsy tissue (human (endogenous in renal biopsy tissue)) (UniProt Q9UBN6).
T1 sequence: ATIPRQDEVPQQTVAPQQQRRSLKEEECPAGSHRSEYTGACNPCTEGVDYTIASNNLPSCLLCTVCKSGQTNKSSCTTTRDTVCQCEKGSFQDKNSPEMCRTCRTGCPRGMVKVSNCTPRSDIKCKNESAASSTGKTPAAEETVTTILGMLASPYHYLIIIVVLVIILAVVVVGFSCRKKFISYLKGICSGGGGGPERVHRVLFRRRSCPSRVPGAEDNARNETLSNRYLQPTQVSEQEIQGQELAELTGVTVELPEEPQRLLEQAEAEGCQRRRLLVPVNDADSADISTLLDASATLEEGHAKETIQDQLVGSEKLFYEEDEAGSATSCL
Put plainly: affinity purification with mass spectrometry; lysed renal tissue of 18 patients with DN and 18 healthy controls incubated overnight with 2 ug anti-DcR2 antibody at 4 °C, protein A + G agarose 3 h at 4 °C, tryptic peptides by LC-MS/MS; proteins with intensity ratio >2 (p < 0.05) taken as DcR2-interacting.

Consider “Glucose-related protein 78 kDa (GRP78), human, endogenous in renal biopsy tissue (from UniProt P11021 19-654)”, for which the binding result is given as “binds”.
